Values quoted from earlier work, collected in patent US9775903B2, “1-deoxy analogs of 1,25-dihydroxyvitamin D3 compounds” (JOHNS HOPKINS UNIVERSITY, priority 2010, dated 2017).
Some entries share one result that the patent states for a list of compounds.

Biological target: T1, VDR (Homo sapiens, UniProt P11473)
T1 sequence (P11473 1-427): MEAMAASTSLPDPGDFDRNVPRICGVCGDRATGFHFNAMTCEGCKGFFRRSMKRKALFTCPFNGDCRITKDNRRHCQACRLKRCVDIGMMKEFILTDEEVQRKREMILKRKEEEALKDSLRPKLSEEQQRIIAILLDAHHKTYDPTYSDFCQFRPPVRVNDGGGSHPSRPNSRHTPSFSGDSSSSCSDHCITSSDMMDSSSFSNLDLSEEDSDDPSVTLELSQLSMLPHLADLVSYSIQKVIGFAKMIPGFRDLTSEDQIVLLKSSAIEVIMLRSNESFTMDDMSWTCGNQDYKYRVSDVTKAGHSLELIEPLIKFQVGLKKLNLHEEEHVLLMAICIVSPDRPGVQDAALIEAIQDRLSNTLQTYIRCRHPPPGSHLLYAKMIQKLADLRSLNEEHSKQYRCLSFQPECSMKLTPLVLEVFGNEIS
Settings: relative to active Vitamin D hormones / 1,25-hydroxyvitamin D3; cited from earlier work

SMILES: C=C1CC[C@H](O)C/C1=C/C=C1\CCC[C@]2(C)[C@@H]([C@H](C)CCCC(C)C)CC[C@@H]12 [Vitamin D3, cholecalciferol]
- affinity for the VDR, fold lower than the active Vitamin D hormone: at least 100 fold
